Data published in US20250206834A1.
No constants are given. Whether binding was seen depends on the method and setting. Some results given as binding are weak or reduced against the parent protein; the word gives no strength.

Chains of the proteins cited; added tags and fusions are not shown. Residues count along the entry.
UniProt Q07011, residues 24-255: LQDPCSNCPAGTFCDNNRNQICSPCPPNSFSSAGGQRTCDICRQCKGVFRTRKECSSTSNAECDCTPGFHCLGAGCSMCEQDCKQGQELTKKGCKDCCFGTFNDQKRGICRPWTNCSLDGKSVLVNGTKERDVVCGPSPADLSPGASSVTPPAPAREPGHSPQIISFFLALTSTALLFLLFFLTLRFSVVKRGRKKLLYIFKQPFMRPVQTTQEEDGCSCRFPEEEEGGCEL

Tests used:
[1] = target: human 4-1BB (human) (UniProt Q07011); assay: flow cytometry, CHO-K1 cells overexpressing human 4-1BB (FIG. 5)
[2] = target: human 4-1BB (human) (UniProt Q07011); assay: flow cytometry, CHO-K1 cells overexpressing human 4-1BB

binding [1]: binds
binding [2]: binds
B1: optimized bispecific antibody with 263 huNb-1-3_2 (bispecific antibody, not shown: a dimerising Fc or GST; large carriers)
heavy (part 1 of 2): EVQLVESGGGVVQPGRSLRLSCSASGFDFTTYWMSWVRQAPGKGLEWIGEIHPDSSTINYAPSLKDRFTISRDNAKNTLFLQMDSLRPEDTGVYFCASLYFGFPWFAYWGQGTPVTVSS
heavy (part 2 of 2): GGGGSGGGGSGGGGSGGGGSEVQLVESGGGLVQPGGSLRLSCAASGFTFSSSAMSWARQAPGKGFEWVSGIYSGGSTYYTESVKDRFTISRDNAKNTVYLQMNSLKPEDTAVYYCATWGTLRFGVWAEYDHWGQGTLVTVSS
light: DIQLTQSPSSLSASVGDRVTITCKASQDVGTSVAWYQQKPGKAPKLLIYWTSTRHTGVPSRFSGSGSGTDFTFTISSLQPEDIATYYCQQYSLYRSFGQGTKVEIK
